Test results as given in patent publication US11168319B1, “Plant cell culture” (Inari Agriculture Technology, Inc., priority 2017, dated 2021).
For at least one compound, name, drawing or mass did not settle the structure. Some of these results come from one statement about several compounds together.

Experiments:
[1] = tested on: maize B73 and A188 protoplasts; assay: Protoplast viability, statements pooled for both maize lines; type: cell-based; details: 100 millimolar calcium or 1 mM glutathione
Method: Separate suspensions of maize B73 and A188 protoplasts (2×10^5 cells per milliliter) were prepared in YPIM B-liquid medium containing various combinations of the added salts calcium chloride, potassium ascorbate, and magnesium chloride or magnesium sulfate. One-half milliliter aliquots of the suspensions were dispensed into a 24-well microtiter plate in the arrangement shown in Table 2, which lists the concentrations of calcium chloride (“Ca”), potassium ascorbate (“A”), and magnesium chloride (“MgCl2”) or magnesium sulfate (“MgSO4”) in millimolar values.
Viability was judged by Evans blue staining and visualization under a light microscope.
Separate suspensions of maize B73 and A188 protoplasts (2×10^5 cells per milliliter) were prepared in YPIM B-liquid medium containing (a) calcium chloride added at 100 millimolar, or (b) 1 millimolar glutathione, or (c) no added calcium or glutathione. One-milliliter aliquots of the suspensions were dispensed into a 24-well microtiter plate. At 16, 40, 64, and 136 hours of culture, 50-microliter samples were taken for hemocytometer analysis from each well; for the plates containing maize A188 protoplasts, parallel 50-microliter samples were taken from a replicate well at 16, 40, and 64 hours of culture for quantification using a Cellometer cell counter (Nexcelom Bioscience LLC, Lawrence, Mass.).
Viability was determined by Evans blue staining and quantification using a hemocytometer. Under conditions with high concentrations of calcium, Evans blue can create precipitates that interfere with cell counting; to prevent this, 5 microliters of an EDTA solution was added to the samples from the wells containing 100 millimolar calcium chloride immediately prior to staining.

[2] = tested on: maize HiIIA protoplasts; assay: Cell division rate by EdU staining (% EdU); type: cell-based; details: 100 mM Ca^2+, 5% oxygen vs 21% oxygen by volume
Method: Cell division was monitored, e.g., by microscopic observations. […] Evidence of cell division was observed by microscopy and included increased cell or protoplast size, bulging membranes, and large groups of organelles occupying the separating daughter cells. Quantification of cell division was carried out using fluorescent staining. Cells were treated with the thymidine analogue 5-ethynyl-2′-deoxyuridine (EdU), which is incorporated into DNA during S-phase and can be fluorescently activated using a fluorochrome that has been conjugated to an azide molecule. Cells that are the result of cellular division in the presence of EdU were identified by the resulting green fluorescent signal, which can be quantified by various means, e.g., with a microplate reader, cell counter, or cell sorter.
In a separate experiment, maize HiIIA protoplasts were grown in 24-well plates using YPIM B-liquid medium containing 100 millimolar Ca^2+ and 20 micromolar EdU. Identical plates were incubated under hypoxia (5% oxygen by volume, 26 degrees Celsius, 80% relative humidity) or ambient oxygen (21% oxygen by volume, 26 degrees Celsius, 80% relative humidity). Entire wells (250 microliters) were taken for EdU detection at four time points. […] The labelled protoplasts were resuspended in YPIM B-medium and samples analyzed on a Nexcelom Cellometer (Nexcelom Bioscience LLC, Lawrence, Mass.). […]

## [Ca+2].[Cl-].[Cl-] [calcium chloride]
[1]; at 40 hours
  protoplast viability higher than control: 10-34%
[1]; at 64 hours
  protoplast viability higher than control: 17-53%
[1]; at 138 hours
  protoplast viability higher than control: 12- at least 46
[2]
  increase in rate of cell division (% EdU): 2- to about 4
